Test results: the supplement of paper PMC5949888
± gives the standard deviation of the averaged measurements. Most values lie at the floor of the assay. Slopes are relative: functional sequences can read slightly below zero.

system: Saccharomyces cerevisiae PS128 hsf1 delta, HSF1(1-493) fusion; assay: growth estimate (transactivation domain function in HSF1 fusion, heat-shock survival) (a.u. (slope of normalised read count over time)); higher = stronger growth at 37°C, i.e. more transactivation activity; settings: library: random library

Q: VAARKERKHSRSCGP was tested. Which growth estimate did it give?
A: < -0.25

Q: With YNGQSISVRGSLIN as the substance, how does the growth estimate read?
A: < -0.25

Q: For GGFVWRRRLRVHIKLPLDED, which growth estimate is on record?
A: < -0.25

Q: QVCAITATAGLDL was tested. Which growth estimate did it give?
A: < -0.25

Q: How did the growth estimate turn out when RKDL was run?
A: < -0.25

Q: With GSVGLVDTTRLSDEVASEA as the substance, how does the growth estimate read?
A: < -0.25

Q: Which growth estimate does the source give for LPR here?
A: < -0.25

Q: Which growth estimate does the source give for ETCG here?
A: < -0.25

Q: How did the growth estimate turn out when VLATVLL was run?
A: < -0.25

Q: Which growth estimate does the source give for VEAAAAE here?
A: < -0.25

Q: With PRKSSRWSPRWLSPNA as the substance, how does the growth estimate read?
A: < -0.25

Q: For WLSRKQKPQGPSAVASSPRI, which growth estimate is on record?
A: < -0.25

Q: Which growth estimate does the source give for GAIEWGPMVWSPWQAR here?
A: < -0.25

Q: For VVAERQTLKRSD, which growth estimate is on record?
A: < -0.25

Q: Which growth estimate does the source give for TSDCSVHEGSPY here?
A: < -0.25

Q: With PWGELLTVYPARHGTAIAKR as the substance, how does the growth estimate read?
A: < -0.25

Q: Which growth estimate does the source give for GPICLICTKNPWYALGTGKR here?
A: -0.246

Q: How did the growth estimate turn out when EEELIACVLSC was run?
A: < -0.25

Q: With HIGWASRHAVCKSTRGVSR as the substance, how does the growth estimate read?
A: < -0.25

Q: Which growth estimate does the source give for SRDGYFDRIHKESGGDGSAK here?
A: < -0.25

Q: Which growth estimate does the source give for IFRIPRGARPGWKIVARVRC here?
A: < -0.25

Q: How did the growth estimate turn out when WQGELSRQGSLRVRCLACLA was run?
A: < -0.25

Q: With YLERQDDAQRGCVPRIVRVP as the substance, how does the growth estimate read?
A: < -0.25

Q: Which growth estimate does the source give for KAPMAPFK here?
A: < -0.25

Q: Which growth estimate does the source give for GRVVPVFRYRGHRLLRGYKG here?
A: < -0.25

Q: How did the growth estimate turn out when LRRTMEINAAGKVRKRVHGR was run?
A: < -0.25

Q: Which growth estimate does the source give for SGCS here?
A: < -0.25

Q: Which growth estimate does the source give for RGKSPQET here?
A: < -0.25

Q: Which growth estimate does the source give for QGPDLRCV here?
A: < -0.25

Q: For GGVPVFHQVYGGSPAFYLWP, which growth estimate is on record?
A: -0.243

Q: GNRDSYVRLNIYPRGFEVIR was tested. Which growth estimate did it give?
A: < -0.25

Q: RSAKGVEL was tested. Which growth estimate did it give?
A: < -0.25

Q: For VGGLI, which growth estimate is on record?
A: < -0.25

Q: With GPV as the substance, how does the growth estimate read?
A: < -0.25

Q: RVLSTR was tested. Which growth estimate did it give?
A: < -0.25

Q: For VLKLRNAKARQFNPADRWRR, which growth estimate is on record?
A: < -0.25

Q: For VGREKGGSKRDSTIRPIKH, which growth estimate is on record?
A: < -0.25

Q: With PQVWWWDAVSDNR as the substance, how does the growth estimate read?
A: < -0.25

Q: For GRSD, which growth estimate is on record?
A: < -0.25

Q: Which growth estimate does the source give for FLV here?
A: -0.2494 ± 0.001

Q: Which growth estimate does the source give for PMMVHDVCLPIYLYQRALRV here?
A: < -0.25

Q: YTQLVKGFSWVCAACHRAHK was tested. Which growth estimate did it give?
A: < -0.25

Q: Which growth estimate does the source give for GVPPNATHVDHHGTQGTVVS here?
A: < -0.25

Q: How did the growth estimate turn out when PRPFGALRSE was run?
A: < -0.25

Q: How did the growth estimate turn out when RPWIACKCHRNAGRAWASDS was run?
A: < -0.25

Q: Which growth estimate does the source give for TDIRGTCYASMMRSSSAGFK here?
A: < -0.25

Q: Which growth estimate does the source give for SRCLLTSVLYRGETLDHFSG here?
A: < -0.25

Q: How did the growth estimate turn out when CRSHIIGRPGLKERATLPPQ was run?
A: < -0.25

Q: Which growth estimate does the source give for QMALTWRFSY here?
A: < -0.25

Q: For DRGCK, which growth estimate is on record?
A: < -0.25

Q: For SRIYAGRIM, which growth estimate is on record?
A: < -0.25

Q: QGPF was tested. Which growth estimate did it give?
A: < -0.25

Q: For KLERFRPERSCFYILGSHHR, which growth estimate is on record?
A: < -0.25

Q: GEREFGALVNTLN was tested. Which growth estimate did it give?
A: < -0.25

Q: With DSQRTLLVRCYSVAVQ as the substance, how does the growth estimate read?
A: < -0.25

Q: Which growth estimate does the source give for LVELPPGVI here?
A: < -0.25

Q: How did the growth estimate turn out when VYAAVGLSRRTDGGKWAWGY was run?
A: < -0.25

Q: Which growth estimate does the source give for ELEYMGPFDRFDLTTRYGGV here?
A: -0.2

Q: Which growth estimate does the source give for LNGLSA here?
A: < -0.25

Q: For ADQVG, which growth estimate is on record?
A: < -0.25

Q: For YVIKQL, which growth estimate is on record?
A: < -0.25

Q: LPVTMAN was tested. Which growth estimate did it give?
A: -0.173

Q: How did the growth estimate turn out when SQPGHRVEPYALARYTGSSH was run?
A: < -0.25

Q: LLLRRARRPKASLQGHNITG was tested. Which growth estimate did it give?
A: < -0.25

Q: For GVCRRYPRRMVVLYVPTHHP, which growth estimate is on record?
A: < -0.25

Q: For SVWWWTRIN, which growth estimate is on record?
A: < -0.25

Q: TRWGRRLDERSGSRMEGIQT was tested. Which growth estimate did it give?
A: < -0.25

Q: With DMG as the substance, how does the growth estimate read?
A: < -0.25

Q: Which growth estimate does the source give for RCRTLEIHPVEVCSLGHKGP here?
A: < -0.25

Q: How did the growth estimate turn out when LLGGTLSAA was run?
A: < -0.25

Q: IMGLTAGSNLSECKGRVSPT was tested. Which growth estimate did it give?
A: < -0.25

Q: Which growth estimate does the source give for GRTCKGYPSSSVLIAELKRA here?
A: < -0.25

Q: HLLSSKPSVRIARGAVAGWV was tested. Which growth estimate did it give?
A: < -0.25

Q: How did the growth estimate turn out when YSACIGGQSCVSLTEIMPVG was run?
A: < -0.25

Q: Which growth estimate does the source give for RTGPGGF here?
A: < -0.25

Q: For PYHRL, which growth estimate is on record?
A: < -0.25

Q: Which growth estimate does the source give for GSSLVYNPWG here?
A: < -0.25

Q: How did the growth estimate turn out when AVSNDNLRARISTCELLTRQ was run?
A: < -0.25

Q: GGVLLSAADYLLGLRQELRA was tested. Which growth estimate did it give?
A: < -0.25

Q: GWVGNKAHLF was tested. Which growth estimate did it give?
A: < -0.25

Q: AQYGGDTPQGSRNFGAREGA was tested. Which growth estimate did it give?
A: < -0.25

Q: PQRSERTAIRTANV was tested. Which growth estimate did it give?
A: < -0.25

Q: How did the growth estimate turn out when DAIANKGL was run?
A: < -0.25

Q: Which growth estimate does the source give for NAGSKVCSSQIPWCRPSIAG here?
A: < -0.25

Q: YWTCHLLRRWALNSLPWALS was tested. Which growth estimate did it give?
A: < -0.25

Q: How did the growth estimate turn out when ELPRIKAS was run?
A: < -0.25

Q: LWGEIVRSAVPYGKGFDTIR was tested. Which growth estimate did it give?
A: -0.154

Q: With DAYKSPRLCTRL as the substance, how does the growth estimate read?
A: < -0.25

Q: SILRAA was tested. Which growth estimate did it give?
A: < -0.25

Q: For PTQLGIYGSLCNRGPTTQHQ, which growth estimate is on record?
A: < -0.25

Q: How did the growth estimate turn out when SQLHASNHPP was run?
A: < -0.25

Q: For TRGDIGSQG, which growth estimate is on record?
A: < -0.25

Q: For GRKCGERNLSGEASTVQE, which growth estimate is on record?
A: < -0.25

Q: Which growth estimate does the source give for RLIYESTRLTRGAPG here?
A: < -0.25

Q: For GVQSINRSGRGRPVSEAGSA, which growth estimate is on record?
A: < -0.25

Q: With IRDRHPVSKEPSVGY as the substance, how does the growth estimate read?
A: < -0.25

Q: Which growth estimate does the source give for WRWKIQIAWGIDSMQSVCRS here?
A: < -0.25

Q: For AAVLLAYGRTCATVLCFFEF, which growth estimate is on record?
A: < -0.25

Q: With GESWRWTLAWRDGQVCAI as the substance, how does the growth estimate read?
A: < -0.25

Q: How did the growth estimate turn out when YQIHVLTMDKPARVPISRSG was run?
A: < -0.25

Q: How did the growth estimate turn out when SETLVILKPLGSALTPISVS was run?
A: < -0.25

Q: Which growth estimate does the source give for IFIAAHLCIWWVVSDQRPMG here?
A: < -0.25

Q: For PSPTRRKEFRRAPSRLHVVR, which growth estimate is on record?
A: < -0.25

Q: Which growth estimate does the source give for GRWCYSPFSGFRRFHF here?
A: < -0.25

Q: RYQLLRSPSGADV was tested. Which growth estimate did it give?
A: < -0.25

Q: How did the growth estimate turn out when CMTISIFTRAIVCVTTLAAW was run?
A: < -0.25

Q: Which growth estimate does the source give for PREPFYFVFGTSHSVAIRTC here?
A: < -0.25

Q: TMISIVDVKESIYY was tested. Which growth estimate did it give?
A: < -0.25

Q: YICVIGREA was tested. Which growth estimate did it give?
A: < -0.25

Q: SRSASGVIAKVACRIVLARR was tested. Which growth estimate did it give?
A: < -0.25

Q: How did the growth estimate turn out when RFFISQRYSELAFGLKFRTS was run?
A: < -0.25

Q: Which growth estimate does the source give for YLRSGQNECY here?
A: < -0.25

Q: With GCVA as the substance, how does the growth estimate read?
A: < -0.25

Q: With IRVRYEYARMVASELRFSRP as the substance, how does the growth estimate read?
A: < -0.25

Q: How did the growth estimate turn out when ASVNDAALGGRMAH was run?
A: < -0.25

Q: For VCLSGLVLAWAEHVS, which growth estimate is on record?
A: < -0.25

Q: For TWGSHVSFPESDAGHLIHDV, which growth estimate is on record?
A: < -0.25

Q: How did the growth estimate turn out when DSRTMGSTLLG was run?
A: < -0.25

Q: How did the growth estimate turn out when GPGKDFRLNMLRTCR was run?
A: < -0.25

Q: Which growth estimate does the source give for GKATVMGVTLSPHRVHSDYS here?
A: < -0.25

Q: With ITDQVTSLCMLLCGSRPAPE as the substance, how does the growth estimate read?
A: -0.246

Q: Which growth estimate does the source give for GSVPRMIPCSTRVADNAS here?
A: < -0.25

Q: With YSRAH as the substance, how does the growth estimate read?
A: < -0.25

Q: LDGIRLPRLILCVSQLV was tested. Which growth estimate did it give?
A: < -0.25

Q: NLGSVGESSQA was tested. Which growth estimate did it give?
A: < -0.25

Q: For CNEESELRRVIWKTRSSKCL, which growth estimate is on record?
A: < -0.25

Q: Which growth estimate does the source give for AICQGDRNPLAPSFDWRSAR here?
A: < -0.25

Q: With GRLGHVDFACELGGSQAPR as the substance, how does the growth estimate read?
A: -0.19

Q: For PSPDMV, which growth estimate is on record?
A: < -0.25

Q: Which growth estimate does the source give for LPYG here?
A: < -0.253

Q: GHPE was tested. Which growth estimate did it give?
A: < -0.25

Q: For LKGKIDFTAAI, which growth estimate is on record?
A: < -0.25

Q: With PSKSGVCTCNTGIALVCPSQ as the substance, how does the growth estimate read?
A: < -0.25

Q: Which growth estimate does the source give for FGPSSPEMQRTWI here?
A: < -0.25

Q: Which growth estimate does the source give for RGGS here?
A: < -0.25

Q: How did the growth estimate turn out when LYIPSRFSRDLLKRALVIAL was run?
A: < -0.25

Q: CVHKWGGAGCILKVEGRL was tested. Which growth estimate did it give?
A: < -0.25

Q: SASRPRVSVSTFCVSQPRVE was tested. Which growth estimate did it give?
A: < -0.25

Q: For SMGTSR, which growth estimate is on record?
A: < -0.25

Q: VSRLTWG was tested. Which growth estimate did it give?
A: < -0.25

Q: How did the growth estimate turn out when GGIVLTRL was run?
A: < -0.25

Q: Which growth estimate does the source give for MSQLSILSEIPISACQGGWH here?
A: < -0.25

Q: Which growth estimate does the source give for TQRERLRLVVL here?
A: < -0.25

Q: NESAASRQILS was tested. Which growth estimate did it give?
A: < -0.25

Q: How did the growth estimate turn out when WIAPPKDEGFA was run?
A: < -0.25

Q: Which growth estimate does the source give for VGTRTEHAK here?
A: < -0.25

Q: How did the growth estimate turn out when LRVTTGGPWGS was run?
A: < -0.25
